Measured values: article PMC5412559

Biological target: T1, Toll-6-3×HA (Drosophila melanogaster) (UniProt Q9VUN0)
T1 sequence: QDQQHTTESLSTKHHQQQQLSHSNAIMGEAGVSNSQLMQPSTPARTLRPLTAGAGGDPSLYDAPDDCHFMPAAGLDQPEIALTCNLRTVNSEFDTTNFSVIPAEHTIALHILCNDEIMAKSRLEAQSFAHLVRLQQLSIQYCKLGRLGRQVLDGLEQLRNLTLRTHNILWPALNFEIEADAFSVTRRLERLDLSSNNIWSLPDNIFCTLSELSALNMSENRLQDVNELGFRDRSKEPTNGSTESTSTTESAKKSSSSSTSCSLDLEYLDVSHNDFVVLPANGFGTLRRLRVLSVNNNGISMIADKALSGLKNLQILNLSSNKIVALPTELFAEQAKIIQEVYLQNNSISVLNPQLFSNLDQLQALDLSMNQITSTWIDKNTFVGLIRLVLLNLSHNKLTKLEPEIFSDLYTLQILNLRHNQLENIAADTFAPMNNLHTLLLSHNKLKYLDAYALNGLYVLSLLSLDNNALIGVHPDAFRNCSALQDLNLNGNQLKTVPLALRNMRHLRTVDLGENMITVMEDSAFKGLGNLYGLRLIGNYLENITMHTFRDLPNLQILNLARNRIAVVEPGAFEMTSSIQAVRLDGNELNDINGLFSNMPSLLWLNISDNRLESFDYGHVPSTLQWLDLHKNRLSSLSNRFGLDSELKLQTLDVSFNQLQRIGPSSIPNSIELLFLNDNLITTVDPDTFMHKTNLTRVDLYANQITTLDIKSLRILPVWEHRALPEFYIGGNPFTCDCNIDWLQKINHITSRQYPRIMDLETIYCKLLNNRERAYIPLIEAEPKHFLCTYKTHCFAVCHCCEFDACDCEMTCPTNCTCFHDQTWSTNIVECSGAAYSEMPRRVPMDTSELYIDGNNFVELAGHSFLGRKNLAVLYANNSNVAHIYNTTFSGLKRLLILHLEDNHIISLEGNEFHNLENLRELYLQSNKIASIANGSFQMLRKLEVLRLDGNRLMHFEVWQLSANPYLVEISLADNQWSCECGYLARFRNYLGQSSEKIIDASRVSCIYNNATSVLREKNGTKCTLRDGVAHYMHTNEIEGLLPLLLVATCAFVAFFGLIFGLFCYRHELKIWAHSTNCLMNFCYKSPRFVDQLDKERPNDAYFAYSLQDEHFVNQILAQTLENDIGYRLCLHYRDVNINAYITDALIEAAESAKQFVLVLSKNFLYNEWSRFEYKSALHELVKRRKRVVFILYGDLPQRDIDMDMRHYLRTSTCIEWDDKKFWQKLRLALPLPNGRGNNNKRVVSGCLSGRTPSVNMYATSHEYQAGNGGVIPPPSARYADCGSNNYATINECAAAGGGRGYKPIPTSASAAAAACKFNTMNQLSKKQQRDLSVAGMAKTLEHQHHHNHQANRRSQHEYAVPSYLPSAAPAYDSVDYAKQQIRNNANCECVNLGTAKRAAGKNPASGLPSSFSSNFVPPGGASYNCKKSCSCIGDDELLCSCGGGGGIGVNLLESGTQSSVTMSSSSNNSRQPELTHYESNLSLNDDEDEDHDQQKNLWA
Assay: co-IP; S2 cells cotransfected with Toll-6-3×HA and Pro-TEV6HisV5-DNT1-CK-CTD, or Toll-7-3×HA and Pro-TEV6HisV5-DNT2-CK; which partner was precipitated is not told in the text (Fig. S3)

binding: binds
Substance: Pro-TEV6HisV5-DNT1-CK-CTD (Drosophila melanogaster) (ligand)

These are yes or no findings as the source states them, for the method shown. In cells and extracts the contact can be indirect. Binding can be weak; no strength is given. Tags and fused reporters may be left off the sequences shown.
